Laboratory results: patent US6805865B1, “Compositions and methods for treating cancer and hyperproliferative disorders” (EntreMed, Inc., priority 1993, dated 2004)

Experiment: Incorporation of VEGF peptides into liposomes (BCA assay)
Type: physicochemical
Details: for conjugation of peptide to liposomes: active peptide conjugation via PDS-CHOL, BCA; for encapsulation of peptide in liposomes: passive encapsulation

Row | Sequence | conjugation of peptide to liposomes | encapsulation of peptide in liposomes
1 | CECRPKKDRTKPEKCDKPRR (incorporated into liposomes; listed as Homo sapiens) [Peptide D, murine VEGF carboxyl terminal peptide with amino-terminal cysteine, incorporated into liposomes] | 74% | 19%
2 | CRTKPEKCDKPRR (incorporated into liposomes; listed as Homo sapiens) [Peptide C, murine VEGF carboxyl terminal peptide with amino-terminal cysteine, incorporated into liposomes] | 68% | 33%
3 | APTTEGEQKSHEVIKFMDVYC (incorporated into liposomes; listed as Homo sapiens) [Peptide E, amino terminal peptide, residues 1-20 of VEGF with C-terminal cysteine, incorporated into liposomes] | 66% | 19%
